Measurements reported in PubChem BioAssay AID1259405 (NCATS, 2018)

- Purpose: 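Mouse-designed siRNAs used to find CHO productivity engineering targets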 (primary screen)
- System: Chinese hamster CHO-K1 ovary cells with stable secreted eGFP expression
- Reagents: single siRNA against mouse genes, 0.8 pmol siRNA per well (2 µl of 400 nM stock)
- Duration: 3 days
- Detection: 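Per-well intracellular GFP measured by laser scanning cytometry, plus viability from ATP luminescence, each relative to plate median of non-targeting control wells, in %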
- Reading the numbers: GFP, % of control: higher = more GFP per well, higher productivity; viability (ATP), % of control: higher = more viable cells (more ATP)
- Hit rule: 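Called active when intracellular GFP, relative to negative control, is at or above 120%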
Shown is an unselected part of about 50,000 reagents. Over the whole deposit, about 4,000 (8%) got an active call. 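Mouse siRNA library applied to hamster cells; one well for each siRNA.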 A number with no mark means an inactive call. Reagents against one gene are numbered here.

gene | siRNA no. | GFP, % of control | viability (ATP), % of control
Foxn3 (GeneID 71375) | 1 | 70.2 | 71.9
Foxn3 (GeneID 71375) | 2 | 90.8 | 75.5
Or11j4 (GeneID 258660) | 1 | 51.2 | 44
Or11j4 (GeneID 258660) | 2 | 92.2 | 92.3
Or11j4 (GeneID 258660) | 3 | 53.2 | 47.6
Col9a3 (GeneID 12841) | 1 | 60.8 | 121
Col9a3 (GeneID 12841) | 2 | 87.7 | 90.9
Glce (GeneID 93683) | 1 | 46.6 | 58.1
Glce (GeneID 93683) | 2 | 56.5 | 60.7
Glce (GeneID 93683) | 3 | 101 | 77.3
Or5w17 (GeneID 258630) | 1 | 99.1 | 93.9
Or5w17 (GeneID 258630) | 2 | 65.2 | 68.2
Or5w17 (GeneID 258630) | 3 | 130 (active) | 78.1
Zdhhc17 (GeneID 320150) | 1 | 80.7 | 79.7
Zdhhc17 (GeneID 320150) | 2 | 64.6 | 93.7
Zdhhc17 (GeneID 320150) | 3 | 62.5 | 74.3
Adgrg7 (GeneID 239853) | 1 | 77.1 | 68.3
Adgrg7 (GeneID 239853) | 2 | 61.8 | 58.3
Adgrg7 (GeneID 239853) | 3 | 55 | 42.2
Krtap19-1 (GeneID 170657) | 1 | 113 | 113
Krtap19-1 (GeneID 170657) | 2 | 53.1 | 57.6
Krtap19-1 (GeneID 170657) | 3 | 83.1 | 99.2
Ubac1 (GeneID 98766) | 1 | 84.1 | 42.6
Ubac1 (GeneID 98766) | 2 | 87 | 92.6
Ubac1 (GeneID 98766) | 3 | 87.6 | 84.8
Tmprss6 (GeneID 71753) | 1 | 57.5 | 76.9
Tmprss6 (GeneID 71753) | 2 | 19 | 17.5
Tmprss6 (GeneID 71753) | 3 | 69.1 | 83.3
Acap1 (GeneID 216859) | 1 | 189 (active) | 151
Acap1 (GeneID 216859) | 2 | 95.1 | 87.7
Acap1 (GeneID 216859) | 3 | 61.4 | 77.6
Nol3 (GeneID 78688) | 1 | 111 | 108
Nol3 (GeneID 78688) | 2 | 88.7 | 94.2
Nol3 (GeneID 78688) | 3 | 69.8 | 68.4
Sprr1b (GeneID 20754) | 1 | 41.7 | 89.4
Sprr1b (GeneID 20754) | 2 | 116 | 118
Sprr1b (GeneID 20754) | 3 | 83.8 | 88.4
Or5t15 (GeneID 258725) | 1 | 62.6 | 62.3
Or5t15 (GeneID 258725) | 2 | 96.9 | 94.7
Or5t15 (GeneID 258725) | 3 | 80.1 | 82.5
Bpifc (GeneID 270757) | 1 | 135 (active) | 121
Bpifc (GeneID 270757) | 2 | 86.9 | 102
Bpifc (GeneID 270757) | 3 | 37.4 | 61

Reagents listed so far marked active, once more:
gene | siRNA no. | GFP, % of control | viability (ATP), % of control
Or5w17 (GeneID 258630) | 3 | 130 (active) | 78.1
Acap1 (GeneID 216859) | 1 | 189 (active) | 151
Bpifc (GeneID 270757) | 1 | 135 (active) | 121

Further results follow.
gene | siRNA no. | GFP, % of control | viability (ATP), % of control
Btbd3 (GeneID 228662) | 1 | 96.4 | 95.2
Btbd3 (GeneID 228662) | 2 | 77.9 | 69.9
Btbd3 (GeneID 228662) | 3 | 114 | 145
Pim3 (GeneID 223775) | 1 | 124 (active) | 118
Pim3 (GeneID 223775) | 2 | 78.1 | 61.2
Pim3 (GeneID 223775) | 3 | 68.8 | 53.7
Ifna5 (GeneID 15968) | 1 | 35.7 | 34.3
Ifna5 (GeneID 15968) | 2 | 71 | 70.5
Ifna5 (GeneID 15968) | 3 | 84.1 | 58.7
Awat2 (GeneID 245532) | 1 | 89.5 | 66.2
Awat2 (GeneID 245532) | 2 | 63.1 | 53.6
Awat2 (GeneID 245532) | 3 | 71.7 | 46.5
C5ar2 (GeneID 319430) | 1 | 52.4 | 61.2
C5ar2 (GeneID 319430) | 2 | 44.2 | 53.8
C5ar2 (GeneID 319430) | 3 | 77.9 | 80.5
Stat5a (GeneID 20850) | 1 | 75.6 | 94.4
Stat5a (GeneID 20850) | 2 | 62.3 | 77.7
Stat5a (GeneID 20850) | 3 | 65.3 | 89.3
Arap2 (GeneID 212285) | 1 | 101 | 102
Arap2 (GeneID 212285) | 2 | 143 (active) | 114
Arap2 (GeneID 212285) | 3 | 57.8 | 42.3
C4a (GeneID 625018) | 1 | 56.2 | 56.3
C4a (GeneID 625018) | 2 | 52.1 | 25.6
C4a (GeneID 625018) | 3 | 83.5 | 77.1
Rubcn (GeneID 100502698) | 1 | 59.6 | 79.5
Rubcn (GeneID 100502698) | 2 | 66.5 | 97.4
Rubcn (GeneID 100502698) | 3 | 77.8 | 91
Klra3 (GeneID 16634) | 1 | 37.1 | 38.1
Klra3 (GeneID 16634) | 2 | 72.9 | 60.2
Klra3 (GeneID 16634) | 3 | 107 | 42.9
Usp6nl (GeneID 98910) | 1 | 35.2 | 18.2
Usp6nl (GeneID 98910) | 2 | 40.4 | 32.7
Usp6nl (GeneID 98910) | 3 | 72.7 | 54
Slc45a2 (GeneID 22293) | 1 | 54.9 | 44.5
Slc45a2 (GeneID 22293) | 2 | 86.9 | 55.8
Slc45a2 (GeneID 22293) | 3 | 121 (active) | 103
Emc7 (GeneID 73024) | 1 | 72.8 | 85.8
Emc7 (GeneID 73024) | 2 | 96.2 | 108
Emc7 (GeneID 73024) | 3 | 87.6 | 93.1
Or2n1e (GeneID 170648) | 1 | 66.2 | 77.9
Or2n1e (GeneID 170648) | 2 | 82.4 | 65.3
Or2n1e (GeneID 170648) | 3 | 57.5 | 74.8
